Data as given in patent US8378114B2, “N-2-(hetero)arylethylcarboxamide derivative, and pest-controlling agent comprising the same” (Nihon Nohyaku Co., Ltd., priority 2006, dated 2013).
Some of these results come from one statement about several compounds together.

Tested on: causal fungus of apple tree scab (Venturia inaequalis)
Assay: Test on the controlling efficacy against apple tree scab
Type: in vivo
Conditions: apple seedling (Ohrin), foliar application, active ingredient 50 ppm, emulsion amount 50 mL, 14 days after inoculation
Description: A seedling of an apple tree (the variety: Ohrin) grown in a pot was subjected to foliar application with a diluted emulsion of the emulsifiable concentrate of the compound of the present invention prepared in accordance with Formulation Example 1, which diluted emulsion was produced by diluting the concentrate with water to the specifically determined volume. On the following day after the application, the seedling was inoculated by spraying with a spore suspension of the causal fungus of apple tree scab (Venturia inaequalis) as obtained by culture on the PSA medium and maintained at 20° C. under humid conditions. Fourteen days after the inoculation, the protective value (%) was determined in accordance with the equation (1), and the controlling efficacy was assessed according the below-described criteria of judgment. [formula]

Row | SMILES | controlling efficacy, criteria of judgment (protective value)
1 | CC(NC(=O)c1ccccc1C(F)(F)F)C1(c2ccc(Cl)cc2Cl)CC1 (racemic) [1-37] | 10 (100% in protective value)
2 | CC(Cc1ccc(Cl)cc1F)NC(=O)c1ccccc1C(F)(F)F (racemic) [1-65] | 10 (100% in protective value)
3 | CC(Cc1ccc(OCC=C(Cl)Cl)cc1Cl)NC(=O)c1cccnc1Cl (racemic) [2-53] | 10 (100% in protective value)
4 | CC(Cc1ccc(Oc2ccccc2)cc1Cl)NC(=O)c1cccnc1Cl (racemic) [2-58] | 10 (100% in protective value)
5 | O=C(NCCc1ccc(Cl)cc1Cl)c1ccccc1C(F)(F)F [1-16] | 10 (100% in protective value)
6 | O=C(NCCc1cccc(Cl)c1Cl)c1ccccc1C(F)(F)F [1-17] | 10 (100% in protective value)
7 | O=C(NCCc1ccc(Cl)c(Cl)c1)c1ccccc1I [1-21] | 10 (100% in protective value)
8 | O=C(NCCc1ccc(F)cc1Cl)c1ccccc1C(F)(F)F [1-22] | 10 (100% in protective value)
9 | Cc1cc(Cl)ccc1CCNC(=O)c1ccccc1C(F)(F)F [1-23] | 10 (100% in protective value)
10 | Cc1ccc(C)c(CCNC(=O)c2ccccc2C(F)(F)F)c1 [1-28] | 10 (100% in protective value)
11 | Cc1ccc(C)c(CCNC(=O)c2ccccc2I)c1 [1-29] | 10 (100% in protective value)
12 | O=C(NCCc1cc(C(F)(F)F)ccc1Cl)c1ccccc1C(F)(F)F [1-30] | 10 (100% in protective value)
13 | O=C(NCC1(c2ccc(Cl)cc2Cl)CC1)c1ccccc1C(F)(F)F [1-34] | 10 (100% in protective value)
14 | O=C(NCCc1ccc(C(F)(F)F)cc1Cl)c1ccccc1C(F)(F)F [1-51] | 10 (100% in protective value)
15 | Cc1ccc(C)c(CCNC(=O)c2nccnc2C(F)(F)F)c1 [3-23] | 10 (100% in protective value)
16 | O=C(NCCc1ccc(Cl)c(Cl)c1Cl)c1nccnc1C(F)(F)F [3-37] | 10 (100% in protective value)
17 | O=C(NCCc1ccc(-c2ccc(OC(F)(F)F)cc2)cc1F)c1nccnc1C(F)(F)F [3-50] | 10 (100% in protective value)

Row | SMILES | controlling efficacy, criteria of judgment (protective value)
18 | O=C(NCCc1ccc(Oc2ncc(C(F)(F)F)cc2Cl)cc1Cl)c1nccnc1C(F)(F)F [3-54] | 10 (100% in protective value)
19 | O=C(NCCc1cc(Cl)c(Cl)cc1Cl)c1nccnc1C(F)(F)F [3-58] | 10 (100% in protective value)
20 | O=C(NCCc1cc(F)c(F)cc1F)c1nccnc1C(F)(F)F [3-59] | 10 (100% in protective value)
21 | CC(Cc1ccc(C(F)(F)F)cc1Cl)NC(=O)c1nccnc1C(F)(F)F (stereo not shown) [3-60] | 10 (100% in protective value)
22 | CC(Cc1ccc(Oc2ncc(C(F)(F)F)cc2Cl)cc1Cl)NC(=O)c1nccnc1C(F)(F)F (stereo not shown) [3-65] | 10 (100% in protective value)
23 | CC(Cc1ccc(OCC=C(Cl)Cl)cc1Cl)NC(=O)c1nccnc1C(F)(F)F (stereo not shown) [3-67] | 10 (100% in protective value)
24 | CC(Cc1cc(Cl)c(Cl)cc1Cl)NC(=O)c1nccnc1C(F)(F)F (stereo not shown) [3-76] | 10 (100% in protective value)
25 | CC(C)(Cc1ccc(Cl)cc1Cl)NC(=O)c1nccnc1C(F)(F)F [3-82] | 10 (100% in protective value)
26 | CC(Cc1ccc(Cl)cc1F)NC(=O)c1nccnc1Cl (stereo not shown) [3′-62] | 10 (100% in protective value)
27 | O=C(NCCc1ccc(Cl)cc1Cl)C1=C(C(F)(F)F)OCCS1 [4-1] | 10 (100% in protective value)
28 | CCC(CNC(=O)c1cn(C)nc1C)c1ccc(Cl)cc1Cl (stereo not shown) [5-5] | 10 (100% in protective value)
29 | CC(Cc1ccc(Cl)cc1Cl)NC(=O)c1cn(C)nc1Cl (stereo not shown) [5-26] | 10 (100% in protective value)
30 | Cc1nc(C(F)(F)F)c(C(=O)NCCc2ccc(Cl)cc2Cl)s1 [6-2] | 10 (100% in protective value)
31 | Cc1nc(C)c(C(=O)NCCc2ccc(Cl)cc2C)s1 [6-5] | 10 (100% in protective value)
32 | Cc1nc(C)c(C(=O)NCCc2cccc(C(F)(F)F)c2)s1 [6-9] | 10 (100% in protective value)
33 | Cc1nc(Cl)sc1C(=O)NCCc1ccc(Cl)cc1Cl [6-24] | 10 (100% in protective value)

Tested on: causal fungus of barley powdery mildew (Blumeria graminis f. sp. hordei)
Assay: Test on the controlling efficacy against powdery mildew of barley plant
Type: in vivo
Conditions: barley (Kantoh No. 6), foliar application, active ingredient 50 ppm, emulsion amount 50 mL, 7 days after inoculation

Row | SMILES | controlling efficacy, criteria of judgment
34 | CC(Cc1ccc(Cl)cc1Cl)NC(=O)c1ccccc1I (racemic) [1-33] | 10 (100% in protective value)
35 | CC(NC(=O)c1ccccc1C(F)(F)F)C1(c2ccc(Cl)cc2Cl)CC1 (racemic) [1-37] | 10 (100% in protective value)
36 | CC(Cc1ccc(C(F)(F)F)cc1Cl)NC(=O)c1ccccc1C(F)(F)F (racemic) [1-63] | 10 (100% in protective value)
37 | CC(Cc1cc(F)c(F)cc1F)NC(=O)c1ccccc1C(F)(F)F (racemic) [1-79] | 10 (100% in protective value)
38 | CCC(CNC(=O)c1cccnc1Cl)c1ccc(Cl)cc1Cl (racemic) [2-18] | 10 (100% in protective value)
39 | CC(NC(=O)c1cccnc1Cl)C1(c2ccc(Cl)cc2Cl)CC1 (racemic) [2-26] | 10 (100% in protective value)
40 | CC(Cc1ccc(Oc2ccccc2)cc1Cl)NC(=O)c1cccnc1Cl (racemic) [2-58] | 10 (100% in protective value)
41 | O=C(NCCc1ccc(Cl)cc1Cl)c1ccccc1C(F)(F)F [1-16] | 10 (100% in protective value)
42 | O=C(NCCc1cc(Cl)ccc1Cl)c1ccccc1C(F)(F)F [1-25] | 10 (100% in protective value)
43 | Cc1ccc(CCNC(=O)c2ccccc2C(F)(F)F)c(C)c1 [1-27] | 10 (100% in protective value)
44 | Cc1ccc(C)c(CCNC(=O)c2ccccc2I)c1 [1-29] | 10 (100% in protective value)
45 | O=C(NCCc1cc(C(F)(F)F)ccc1Cl)c1ccccc1C(F)(F)F [1-30] | 10 (100% in protective value)
46 | O=C(NCC1(c2ccc(Cl)cc2Cl)CC1)c1ccccc1C(F)(F)F [1-34] | 10 (100% in protective value)
47 | O=C(NCC1(c2ccc(Cl)cc2Cl)CC1)c1ccccc1I [1-35] | 10 (100% in protective value)
48 | O=C(NCCc1ccc(C(F)(F)F)cc1F)c1ccccc1C(F)(F)F [1-39] | 10 (100% in protective value)
49 | O=C(NCCc1ccc(C(F)(F)F)cc1Cl)c1ccccc1C(F)(F)F [1-51] | 10 (100% in protective value)
50 | O=C(NCCc1cc(Cl)c(Cl)cc1Cl)c1ccccc1C(F)(F)F [1-61] | 10 (100% in protective value)
51 | O=C(NCCc1ccc(Cl)c(Cl)c1Cl)c1nccnc1C(F)(F)F [3-37] | 10 (100% in protective value)
52 | CC(NC(=O)c1nccnc1C(F)(F)F)C1(c2ccc(Cl)cc2Cl)CC1 (stereo not shown) [3-44] | 10 (100% in protective value)

Row | SMILES | controlling efficacy, criteria of judgment
53 | O=C(NCCc1ccc(-c2ccc(OC(F)(F)F)cc2)cc1F)c1nccnc1C(F)(F)F [3-50] | 10 (100% in protective value)
54 | O=C(NCCc1cc(Cl)c(Cl)cc1Cl)c1nccnc1C(F)(F)F [3-58] | 10 (100% in protective value)
55 | CC(Cc1ccc(C(F)(F)F)cc1Cl)NC(=O)c1nccnc1C(F)(F)F (stereo not shown) [3-60] | 10 (100% in protective value)
56 | CC(Cc1ccc(Oc2ncc(C(F)(F)F)cc2Cl)cc1Cl)NC(=O)c1nccnc1Cl (stereo not shown) [3′-65] | 10 (100% in protective value)
57 | Cn1cc(C(=O)NCCc2ccc(Cl)cc2Cl)c(C(F)(F)F)n1 [5-6] | 10 (100% in protective value)
58 | CC(Cc1ccc(Cl)c(Cl)c1)NC(=O)c1cn(C)nc1C(F)(F)F (stereo not shown) [5-23] | 10 (100% in protective value)
59 | Cc1nc(C)c(C(=O)NCCc2ccc(Cl)c(Cl)c2)s1 [6-4] | 10 (100% in protective value)
60 | Cc1nc(C)c(C(=O)NCCc2ccc(C(F)(F)F)cc2F)s1 [6-11] | 10 (100% in protective value)
61 | Cc1nc(C)c(C(=O)NCC(C)c2ccc(Cl)cc2)s1 (stereo not shown) [6-12] | 10 (100% in protective value)
62 | Cc1nc(C)c(C(=O)NCC(C)(C)c2ccc(Cl)cc2)s1 [6-13] | 10 (100% in protective value)
63 | CCC(CNC(=O)c1sc(C)nc1C)c1ccc(Cl)cc1 (stereo not shown) [6-14] | 10 (100% in protective value)
64 | CCC(C)(CNC(=O)c1sc(C)nc1C)c1ccc(Cl)cc1 (stereo not shown) [6-15] | 10 (100% in protective value)
65 | CCCC(CNC(=O)c1sc(C)nc1C)c1ccc(Cl)cc1Cl (stereo not shown) [6-18] | 10 (100% in protective value)
66 | Cc1nc(C)c(C(=O)NCC(c2ccc(Cl)cc2Cl)C(C)C)s1 (stereo not shown) [6-20] | 10 (100% in protective value)
67 | Cc1nc(C)c(C(=O)NC(C)C2(c3ccc(Cl)cc3Cl)CC2)s1 (stereo not shown) [6-23] | 10 (100% in protective value)
68 | O=C(NCCc1ncc(C(F)(F)F)cc1Cl)c1cccnc1Cl [comparison compound C, N-{2-[3-chloro-5-(trifluoromethyl)pyridin-2-yl]ethyl}-2-chloropyridine-3-carboxamide, reference compound] | 0 (Less than 9% in protective value)
69 | CC(Cc1ccc(Cl)cc1Cl)NC(=O)c1ccccc1C(F)(F)F (stereo not shown) [compound No. 1-32, N-[2-(2,4-dichloro-phenyl)-1-methylethyl]-2-trifluoromethylbenzamide] | 10 (100% in protective value)
70 | CC(NC(=O)c1nccnc1Cl)C1(c2ccc(Cl)cc2Cl)CC1 (stereo not shown) [compound No. 3′-45, N-{1-[1-(2,4-dichlorophenyl)cyclopropyl]ethyl}-2-chloropyrazine-3-carboxamide] | 10 (100% in protective value)
